Some results were stated once for a whole list of compounds, not compound by compound.
System: Porcine lung tissue
Assay: Sealing and hemostatic activity, lung tissue incisions
Assay type: in vivo
Conditions: lung incision, applied by syringe without compression

trisilanol hepta-isoOctyl POSS [i-octylPOSS trisilanol]
time to hemostasis: ≤ 30 s
time to seal against air loss (pneumostasis): ≤ 10 s

From patent US12642886B2, “POSS viscoelastic hemostatic agents” (Hybrid Plastics, Incorporated, priority 2019, dated 2026)
